Construct, isoform or probe ends are uncertain for at least one entry.
Target: glycated albumin (GA) (UniProt P02768)
Assay: electrochemical aptasensor (DPV, CV)
Conditions: aptamer on PDA NPs, 0.05-5 uM, GA 0.5-1000 ug/mL, LOD 0.17 ug/mL at 0.5 uM aptamer; 5'-NH2; PBS pH 7.4, 60 min GA incubation; DPV in 5 mM ferricyanide, 0.1 M KCl in PBS; incubation temperature not stated; commercial protein; single-stranded …

TGCGGTTGTAGTACTCGTGGCCG [anti-GA aptamer (23 nt)]
binding result: binds
